Reference: the supplement of paper PMC10849652
The other results are listed elsewhere or left out.

Amino acid sequences for entries named in this document (tags omitted). A change or cut given only in a name is not applied to a line headed by its entry.
UniProt O95758: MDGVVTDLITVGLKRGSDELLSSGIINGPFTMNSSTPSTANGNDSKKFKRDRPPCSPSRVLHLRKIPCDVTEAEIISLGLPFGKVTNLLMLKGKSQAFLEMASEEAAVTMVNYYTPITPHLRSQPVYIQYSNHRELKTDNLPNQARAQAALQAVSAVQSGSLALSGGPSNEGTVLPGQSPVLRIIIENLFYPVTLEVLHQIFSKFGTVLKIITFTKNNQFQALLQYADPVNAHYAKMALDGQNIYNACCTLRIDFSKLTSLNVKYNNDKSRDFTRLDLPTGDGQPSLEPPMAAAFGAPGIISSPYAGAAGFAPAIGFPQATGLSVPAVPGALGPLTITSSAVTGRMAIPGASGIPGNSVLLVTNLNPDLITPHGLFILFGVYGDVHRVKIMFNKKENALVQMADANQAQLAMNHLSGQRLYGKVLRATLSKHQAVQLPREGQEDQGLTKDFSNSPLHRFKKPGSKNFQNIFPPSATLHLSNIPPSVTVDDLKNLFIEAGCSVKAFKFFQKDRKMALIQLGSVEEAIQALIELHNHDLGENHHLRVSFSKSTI
UniProt Q12974: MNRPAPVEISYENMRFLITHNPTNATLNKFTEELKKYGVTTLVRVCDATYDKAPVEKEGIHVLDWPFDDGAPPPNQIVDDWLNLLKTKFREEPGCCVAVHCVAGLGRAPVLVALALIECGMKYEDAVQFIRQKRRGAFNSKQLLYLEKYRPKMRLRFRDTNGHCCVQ
UniProt Q9Y6M0: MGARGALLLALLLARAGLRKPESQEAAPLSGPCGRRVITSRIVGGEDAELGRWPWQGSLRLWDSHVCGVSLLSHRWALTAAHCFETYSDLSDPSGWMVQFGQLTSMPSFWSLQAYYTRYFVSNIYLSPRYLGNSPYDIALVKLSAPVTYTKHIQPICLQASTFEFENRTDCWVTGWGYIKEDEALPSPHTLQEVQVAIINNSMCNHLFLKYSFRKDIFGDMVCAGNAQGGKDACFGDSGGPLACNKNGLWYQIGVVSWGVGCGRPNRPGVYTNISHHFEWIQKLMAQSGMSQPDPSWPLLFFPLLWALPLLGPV
UniProt Q13308: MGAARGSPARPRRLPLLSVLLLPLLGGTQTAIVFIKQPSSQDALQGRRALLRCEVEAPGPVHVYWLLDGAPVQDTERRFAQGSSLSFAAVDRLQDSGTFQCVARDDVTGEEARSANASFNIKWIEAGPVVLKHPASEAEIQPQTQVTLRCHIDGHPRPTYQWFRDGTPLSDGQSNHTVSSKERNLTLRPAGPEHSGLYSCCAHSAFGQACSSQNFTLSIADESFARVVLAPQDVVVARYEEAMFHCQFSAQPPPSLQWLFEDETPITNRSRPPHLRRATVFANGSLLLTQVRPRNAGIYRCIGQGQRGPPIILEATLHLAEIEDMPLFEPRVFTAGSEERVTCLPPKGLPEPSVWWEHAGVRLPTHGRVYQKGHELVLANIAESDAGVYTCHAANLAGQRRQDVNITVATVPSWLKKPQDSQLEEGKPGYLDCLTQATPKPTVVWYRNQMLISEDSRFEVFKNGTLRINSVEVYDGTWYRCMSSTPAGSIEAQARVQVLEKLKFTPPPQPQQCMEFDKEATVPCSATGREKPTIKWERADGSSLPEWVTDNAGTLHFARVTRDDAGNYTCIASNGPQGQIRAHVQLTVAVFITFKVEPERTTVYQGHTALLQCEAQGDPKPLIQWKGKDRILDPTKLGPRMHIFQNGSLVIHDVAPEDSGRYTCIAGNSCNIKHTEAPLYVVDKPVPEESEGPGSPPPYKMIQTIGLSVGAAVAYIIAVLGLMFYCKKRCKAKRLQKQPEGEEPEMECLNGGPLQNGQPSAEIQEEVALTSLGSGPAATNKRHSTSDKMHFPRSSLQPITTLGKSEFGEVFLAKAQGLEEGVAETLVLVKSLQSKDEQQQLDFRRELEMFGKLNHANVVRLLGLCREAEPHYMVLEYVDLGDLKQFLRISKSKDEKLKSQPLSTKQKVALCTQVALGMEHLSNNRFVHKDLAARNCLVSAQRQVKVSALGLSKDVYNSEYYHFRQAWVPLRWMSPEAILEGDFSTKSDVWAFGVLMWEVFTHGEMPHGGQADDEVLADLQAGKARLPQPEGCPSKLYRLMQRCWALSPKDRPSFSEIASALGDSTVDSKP
UniProt P41219, whole entry, looked up: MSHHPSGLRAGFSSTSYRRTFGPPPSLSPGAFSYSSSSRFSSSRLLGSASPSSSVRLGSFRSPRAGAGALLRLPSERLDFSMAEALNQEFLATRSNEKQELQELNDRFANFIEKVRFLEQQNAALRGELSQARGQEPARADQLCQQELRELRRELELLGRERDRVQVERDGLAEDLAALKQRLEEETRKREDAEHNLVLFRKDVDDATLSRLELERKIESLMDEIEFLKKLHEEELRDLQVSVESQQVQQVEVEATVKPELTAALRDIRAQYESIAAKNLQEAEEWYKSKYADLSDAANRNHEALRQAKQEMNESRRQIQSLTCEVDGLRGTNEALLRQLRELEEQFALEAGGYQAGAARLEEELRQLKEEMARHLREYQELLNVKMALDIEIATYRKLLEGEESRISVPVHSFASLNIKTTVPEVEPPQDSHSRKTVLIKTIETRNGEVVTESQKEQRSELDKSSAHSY
UniProt P17980, whole entry, looked up: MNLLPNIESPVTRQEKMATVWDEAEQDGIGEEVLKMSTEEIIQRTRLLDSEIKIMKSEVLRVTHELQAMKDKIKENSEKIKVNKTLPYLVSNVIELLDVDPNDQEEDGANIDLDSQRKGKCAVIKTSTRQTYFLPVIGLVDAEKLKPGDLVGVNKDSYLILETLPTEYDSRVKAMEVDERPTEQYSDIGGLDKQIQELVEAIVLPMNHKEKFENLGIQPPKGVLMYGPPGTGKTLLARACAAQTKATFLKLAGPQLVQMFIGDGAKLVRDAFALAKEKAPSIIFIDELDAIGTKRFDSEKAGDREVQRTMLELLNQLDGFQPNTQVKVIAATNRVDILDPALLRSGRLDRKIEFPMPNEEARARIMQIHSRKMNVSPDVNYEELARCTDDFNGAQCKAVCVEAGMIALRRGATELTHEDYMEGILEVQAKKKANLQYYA
UniProt P25787: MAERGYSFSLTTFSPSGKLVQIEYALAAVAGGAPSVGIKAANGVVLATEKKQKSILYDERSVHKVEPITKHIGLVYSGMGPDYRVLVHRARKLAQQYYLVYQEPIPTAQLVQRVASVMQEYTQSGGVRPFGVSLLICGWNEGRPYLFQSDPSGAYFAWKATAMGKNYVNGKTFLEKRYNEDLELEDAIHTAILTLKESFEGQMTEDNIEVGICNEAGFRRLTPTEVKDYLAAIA
UniProt Q00577: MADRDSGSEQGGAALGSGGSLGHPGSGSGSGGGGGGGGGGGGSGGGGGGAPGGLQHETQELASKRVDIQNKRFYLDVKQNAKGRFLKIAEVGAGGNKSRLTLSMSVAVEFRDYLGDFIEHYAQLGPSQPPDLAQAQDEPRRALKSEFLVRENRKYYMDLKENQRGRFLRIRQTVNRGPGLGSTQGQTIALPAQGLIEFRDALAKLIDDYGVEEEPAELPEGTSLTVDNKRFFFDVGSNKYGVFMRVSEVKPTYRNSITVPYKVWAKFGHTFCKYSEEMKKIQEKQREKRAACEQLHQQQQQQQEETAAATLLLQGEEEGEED
UniProt Q9UNM6: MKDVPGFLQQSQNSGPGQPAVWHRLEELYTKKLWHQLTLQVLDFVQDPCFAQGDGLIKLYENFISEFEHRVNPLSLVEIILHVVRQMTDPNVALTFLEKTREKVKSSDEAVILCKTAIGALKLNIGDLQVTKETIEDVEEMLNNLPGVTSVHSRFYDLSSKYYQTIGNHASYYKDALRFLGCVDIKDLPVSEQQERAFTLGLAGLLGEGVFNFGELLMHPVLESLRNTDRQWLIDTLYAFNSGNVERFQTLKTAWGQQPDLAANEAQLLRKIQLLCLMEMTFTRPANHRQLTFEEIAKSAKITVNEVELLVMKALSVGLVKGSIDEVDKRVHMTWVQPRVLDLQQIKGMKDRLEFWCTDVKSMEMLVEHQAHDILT
UniProt Q9H0K6: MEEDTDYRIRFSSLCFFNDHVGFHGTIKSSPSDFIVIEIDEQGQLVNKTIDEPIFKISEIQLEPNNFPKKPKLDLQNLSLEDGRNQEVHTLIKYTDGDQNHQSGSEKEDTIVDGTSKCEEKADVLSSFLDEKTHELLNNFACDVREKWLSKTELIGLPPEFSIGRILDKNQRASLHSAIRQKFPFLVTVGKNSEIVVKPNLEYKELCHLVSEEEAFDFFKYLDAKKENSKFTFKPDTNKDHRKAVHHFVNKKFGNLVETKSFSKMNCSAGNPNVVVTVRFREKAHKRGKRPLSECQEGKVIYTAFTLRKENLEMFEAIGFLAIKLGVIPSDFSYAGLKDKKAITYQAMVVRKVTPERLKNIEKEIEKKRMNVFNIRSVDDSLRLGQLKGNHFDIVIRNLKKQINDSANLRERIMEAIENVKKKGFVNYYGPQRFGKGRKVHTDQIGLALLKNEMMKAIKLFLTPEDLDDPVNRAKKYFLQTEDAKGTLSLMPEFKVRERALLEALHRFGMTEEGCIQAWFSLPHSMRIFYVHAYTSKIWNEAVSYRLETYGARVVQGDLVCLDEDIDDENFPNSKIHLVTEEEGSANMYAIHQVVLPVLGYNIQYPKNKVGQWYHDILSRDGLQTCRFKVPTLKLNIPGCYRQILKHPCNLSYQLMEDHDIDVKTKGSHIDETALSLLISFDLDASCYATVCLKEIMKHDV
UniProt Q6PGN9: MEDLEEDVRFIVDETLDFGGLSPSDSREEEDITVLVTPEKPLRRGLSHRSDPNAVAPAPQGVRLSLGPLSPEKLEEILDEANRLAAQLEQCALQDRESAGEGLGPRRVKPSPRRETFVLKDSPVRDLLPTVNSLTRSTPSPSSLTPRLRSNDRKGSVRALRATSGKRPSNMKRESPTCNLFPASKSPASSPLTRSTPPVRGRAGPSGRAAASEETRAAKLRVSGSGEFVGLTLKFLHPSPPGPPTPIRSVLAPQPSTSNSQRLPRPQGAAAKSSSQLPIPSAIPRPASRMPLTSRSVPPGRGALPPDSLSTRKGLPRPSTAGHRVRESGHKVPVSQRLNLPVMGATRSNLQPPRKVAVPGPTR
UniProt O00232: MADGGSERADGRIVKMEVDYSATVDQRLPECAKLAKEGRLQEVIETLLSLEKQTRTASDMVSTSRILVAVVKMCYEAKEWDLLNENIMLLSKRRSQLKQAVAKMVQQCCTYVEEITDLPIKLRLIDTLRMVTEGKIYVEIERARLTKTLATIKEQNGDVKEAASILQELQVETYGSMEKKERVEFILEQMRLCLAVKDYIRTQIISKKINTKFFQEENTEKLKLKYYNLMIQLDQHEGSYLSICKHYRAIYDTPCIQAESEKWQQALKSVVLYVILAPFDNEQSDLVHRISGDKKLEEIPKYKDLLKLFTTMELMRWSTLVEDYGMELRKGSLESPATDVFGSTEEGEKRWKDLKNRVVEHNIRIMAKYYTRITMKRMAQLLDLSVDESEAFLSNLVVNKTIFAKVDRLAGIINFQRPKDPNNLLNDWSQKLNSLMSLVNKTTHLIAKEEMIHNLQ
UniProt Q9Y606: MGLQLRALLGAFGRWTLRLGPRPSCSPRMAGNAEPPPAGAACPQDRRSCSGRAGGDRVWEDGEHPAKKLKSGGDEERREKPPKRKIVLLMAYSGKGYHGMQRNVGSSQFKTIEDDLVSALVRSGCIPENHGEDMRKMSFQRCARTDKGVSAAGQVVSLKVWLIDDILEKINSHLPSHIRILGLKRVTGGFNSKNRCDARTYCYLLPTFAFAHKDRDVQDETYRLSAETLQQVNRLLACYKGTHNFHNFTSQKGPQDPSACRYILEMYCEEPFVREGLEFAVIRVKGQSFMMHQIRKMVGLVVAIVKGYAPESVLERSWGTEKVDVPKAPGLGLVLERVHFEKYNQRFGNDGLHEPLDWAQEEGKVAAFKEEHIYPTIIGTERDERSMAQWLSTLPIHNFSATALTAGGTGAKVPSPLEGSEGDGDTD
UniProt Q03393: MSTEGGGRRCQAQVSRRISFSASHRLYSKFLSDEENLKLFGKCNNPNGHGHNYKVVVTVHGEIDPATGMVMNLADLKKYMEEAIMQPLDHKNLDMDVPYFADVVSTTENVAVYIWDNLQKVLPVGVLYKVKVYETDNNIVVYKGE
UniProt P07602: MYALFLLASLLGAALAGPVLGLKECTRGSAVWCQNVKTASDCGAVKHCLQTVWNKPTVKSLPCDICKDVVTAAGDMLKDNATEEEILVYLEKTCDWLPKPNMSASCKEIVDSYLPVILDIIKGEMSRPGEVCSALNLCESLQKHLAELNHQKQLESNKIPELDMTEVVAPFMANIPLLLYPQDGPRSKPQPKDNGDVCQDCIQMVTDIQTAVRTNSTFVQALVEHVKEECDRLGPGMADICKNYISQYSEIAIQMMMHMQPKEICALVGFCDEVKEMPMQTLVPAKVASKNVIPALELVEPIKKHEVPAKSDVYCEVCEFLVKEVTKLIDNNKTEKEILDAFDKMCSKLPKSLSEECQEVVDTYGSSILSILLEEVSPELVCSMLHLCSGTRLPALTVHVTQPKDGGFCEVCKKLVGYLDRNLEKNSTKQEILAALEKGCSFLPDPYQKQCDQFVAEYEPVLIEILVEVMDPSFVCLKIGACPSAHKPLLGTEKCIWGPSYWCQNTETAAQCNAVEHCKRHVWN

Experiments:
Assay in all cases: log2 fold change, soluble protein after heating vs DMSO (PISA); higher = thermal stabilisation; K562 lysate, 10 uM; active = over 0.2 and 3.5 SD of the protein, either way, in both replicates (recomputed)
[1] = compound: CCCS(=O)(=O)Nc1ccc(F)c(C(=O)c2c[nH]c3ncc(-c4ccc(Cl)cc4)cc23)c1F [vemurafenib]
Outline: (§1)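 Dounce homogenisation of K562 pellets in PBS pH 7.4 with 1 mM MgCl2 produced a crude extract, used at 1 mg/mL protein. Exposure to 10 μM compound lasted 30 min, and aliquots were then heated for 3 min across 48°C-58°C, pooled and brought to 0.5% NP-40 at 4°C. The supernatant after 21,000xg for 90 min was quantified by TMTpro 16plex LC-MS/MS with channel sums equalised. Duplicate values are given as log-two fold change in thermal stability relative to solvent controls.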

[2] = compound: CCCS(=O)(=O)Nc1ccc(F)c(C(=O)c2c[nH]c3ncc(Cl)cc23)c1F
Outline: as §1

[3] = compound: CCN(CCCOc1ccc2c(Nc3cc(CC(=O)Nc4cccc(F)c4)[nH]n3)ncnc2c1)CCOP(=O)(O)O [barasertib]
Outline: as §1

[4] = compound: CC[C@@H]1C(=O)N(C)c2cnc(Nc3ccc(C(=O)NC4CCN(C)CC4)cc3OC)nc2N1C1CCCC1
Outline: as §1

[5] = compound: CC[C@@H]1C(=O)N(C)c2cnc(Nc3ccc(C(=O)N[C@H]4CC[C@H](N5CCN(CC6CC6)CC5)CC4)cc3OC)nc2N1C(C)C [volasertib]
Outline: as §1

[6] = compound: CCn1c(C(=O)N(C2CC2)C2CC2)cc2c3c(ncn3C)c(Nc3cc(C)n(C)n3)nc21
Outline: as §1

[7] = compound: CCn1cc(-c2ccnc3[nH]c(-c4cccc(CN(C)C)c4)cc23)c(-c2ccc(NC(=O)N(C)C)cc2)n1
Outline: as §1

[8] = compound: CN1CCC(CNc2ccc3ncc(-c4cccc(OC(F)(F)F)c4)n3n2)CC1
Outline: as §1

[9] = compound: CN1CCN(CCOc2cc(OC3CCOCC3)c3c(Nc4c(Cl)ccc5c4OCO5)ncnc3c2)CC1 [saracatinib]
Outline: as §1

[10] = compound: CN1CCN(c2nc(C3=C(c4c[nH]c5ccccc45)C(=O)NC3=O)c3ccccc3n2)CC1 [sotrastaurin]
Outline: as §1

Row | Target | log2 fold change [1] | log2 fold change [2] | log2 fold change [3] | log2 fold change [4] | log2 fold change [5] | log2 fold change [6] | log2 fold change [7] | log2 fold change [8] | log2 fold change [9] | log2 fold change [10]
1 | PTBP3 isoform 4 (UniProt O95758) | inactive: 0.01 | inactive: 0.016 | inactive: 0.016 | inactive: -0.003 | inactive: 0.002 | inactive: 0.037 | inactive: -0.107 | inactive: -0.002 | inactive: 0.007 | inactive: -0.043
2 | PTP4A2 (UniProt Q12974) | inactive: -0.065 | inactive: -0.015 | inactive: -0.108 | inactive: -0.01 | inactive: 0.079 | inactive: 0.035 | inactive: -0.152 | inactive: 0 | inactive: -0.096 | inactive: -0.039
3 | PSMA6 (UniProt P60900) | inactive: -0.024 | inactive: 0.002 | inactive: -0.03 | inactive: 0.003 | inactive: 0.03 | inactive: -0.038 | inactive: 0.063 | inactive: 0.023 | inactive: -0.015 | inactive: 0.008
4 | PSMC2 (UniProt P35998) | inactive: -0.022 | inactive: 0.02 | inactive: -0.008 | inactive: -0.023 | inactive: -0.031 | inactive: 0.009 | inactive: 0.007 | inactive: -0.055 | inactive: 0.001 | inactive: 0.011
5 | PRSS21 (UniProt Q9Y6M0) | inactive: 0.024 | inactive: 0.042 | inactive: -0.052 | inactive: -0.005 | inactive: 0.019 | inactive: -0.049 | inactive: -0.017 | inactive: 0.032 | inactive: -0.025 | inactive: 0.026
6 | PRPF8 (UniProt Q6P2Q9) | inactive: -0.008 | inactive: 0.005 | inactive: 0.021 | inactive: -0.007 | inactive: -0.025 | inactive: 0.026 | inactive: -0.059 | inactive: -0.036 | inactive: 0.012 | inactive: 0.032
7 | PTK7 isoform 6 (UniProt Q13308) | inactive: 0.147 | inactive: -0.063 | inactive: 0.05 | inactive: 0.074 | inactive: 0.018 | inactive: -0.019 | inactive: -0.059 | inactive: 0.088 | inactive: 0.024 | inactive: 0.046
8 | PRPH isoform 2 (UniProt P41219) | inactive: 0.03 | inactive: -0.05 | inactive: -0.13 | inactive: -0.102 | inactive: -0.028 | inactive: 0.098 | inactive: 0.132 | inactive: -0.1 | inactive: 0.071 | inactive: 0.036
9 | PSMC3 (UniProt P17980) | inactive: 0 | inactive: 0.009 | inactive: -0.017 | inactive: -0.005 | inactive: -0.057 | inactive: -0.021 | inactive: 0.031 | inactive: -0.023 | inactive: 0.008 | inactive: -0.011
10 | PTPRC (UniProt P08575) | inactive: 0.012 | inactive: -0.021 | inactive: -0.013 | inactive: 0.025 | inactive: 0.019 | inactive: 0.011 | inactive: -0.084 | inactive: 0.053 | inactive: 0.001 | inactive: 0.028
11 | PSMC4 (UniProt P43686) | inactive: 0.003 | inactive: 0.01 | inactive: 0.033 | inactive: -0.029 | inactive: -0.025 | inactive: -0.021 | inactive: 0.028 | inactive: -0.011 | inactive: 0.001 | inactive: 0.003
12 | PSMA2 (UniProt P25787) | inactive: -0.021 | inactive: -0.006 | inactive: -0.037 | inactive: 0.011 | inactive: 0.019 | inactive: -0.015 | inactive: 0.036 | inactive: 0.011 | inactive: 0 | inactive: 0.001
13 | PSMD10 (UniProt O75832) | inactive: 0.01 | inactive: -0.003 | inactive: 0.057 | inactive: -0.019 | inactive: -0.006 | inactive: -0.011 | inactive: -0.179 | inactive: 0 | inactive: -0.03 | inactive: -0.011
14 | PURB (UniProt Q96QR8) | inactive: -0.002 | inactive: -0.025 | inactive: -0.006 | inactive: -0.178 | inactive: 0.009 | inactive: 0.037 | inactive: 0.007 | inactive: 0.01 | inactive: 0.007 | inactive: -0.02
15 | PURA (UniProt Q00577) | inactive: -0.124 | inactive: 0.007 | inactive: -0.067 | inactive: 0.122 | inactive: 0.031 | inactive: -0.011 | inactive: 0.244 | inactive: -0.014 | inactive: 0.016 | inactive: -0.027
16 | PRTFDC1 (UniProt Q9NRG1) | inactive: -0.022 | inactive: -0.039 | inactive: -0.013 | inactive: -0.003 | inactive: 0.03 | inactive: -0.004 | inactive: -0.042 | inactive: 0.014 | inactive: -0.024 | inactive: 0.019
17 | PSMD13 (UniProt Q9UNM6) | inactive: -0.05 | inactive: -0.022 | inactive: 0.095 | inactive: -0.102 | inactive: -0.015 | inactive: 0.016 | inactive: -0.044 | inactive: -0.021 | inactive: -0.011 | inactive: -0.045
18 | PUS7L (UniProt Q9H0K6) | inactive: -0.016 | inactive: 0.008 | inactive: -0.004 | inactive: 0.015 | inactive: -0.013 | inactive: -0.006 | inactive: -0.066 | inactive: 0.058 | inactive: -0.015 | inactive: 0.008
19 | PSRC1 (UniProt Q6PGN9) | inactive: -0.116 | inactive: 0.038 | inactive: 0.058 | inactive: -0.216 | inactive: -0.017 | inactive: 0.045 | inactive: 0.072 | inactive: -0.083 | inactive: -0.032 | inactive: 0.047
20 | PTER (UniProt Q96BW5) | inactive: -0.029 | inactive: -0.026 | inactive: -0.007 | inactive: -0.016 | inactive: 0.033 | inactive: -0.009 | inactive: -0.023 | inactive: 0.087 | inactive: -0.016 | inactive: 0.036
21 | PSMB2 (UniProt P49721) | inactive: 0.005 | inactive: -0.009 | inactive: 0.047 | inactive: -0.002 | inactive: 0.041 | inactive: -0.021 | inactive: -0.05 | inactive: 0.01 | inactive: -0.016 | inactive: -0.043
22 | PSMD12 (UniProt O00232) | inactive: -0.024 | inactive: -0.003 | inactive: 0.01 | inactive: -0.028 | inactive: -0.019 | inactive: 0.009 | inactive: 0.019 | inactive: -0.003 | inactive: 0.011 | inactive: 0.011
23 | PTPN9 (UniProt P43378) | inactive: 0.09 | inactive: -0.133 | inactive: 0.088 | inactive: 0.239 | inactive: -0.253 | inactive: -0.282 | inactive: 0.082 | inactive: -0.035 | inactive: 0.064 | inactive: -0.19
24 | PUS1 (UniProt Q9Y606) | inactive: 0.026 | inactive: 0.002 | inactive: 0.055 | inactive: -0.086 | inactive: -0.077 | inactive: 0.028 | inactive: -0.058 | inactive: -0.02 | inactive: 0.035 | inactive: -0.027
25 | PWP1 (UniProt Q13610) | inactive: -0.09 | inactive: 0.019 | inactive: 0.012 | inactive: -0.032 | inactive: -0.004 | inactive: -0.023 | active: 0.62 | inactive: -0.039 | inactive: 0.01 | inactive: -0.021
26 | PUF60 (UniProt Q9UHX1) | inactive: 0.002 | inactive: 0.015 | inactive: -0.005 | inactive: 0.002 | inactive: 0.003 | inactive: -0.015 | inactive: 0.116 | inactive: -0.018 | inactive: 0 | inactive: -0.02
27 | PTPRS isoform 3 (UniProt Q13332) | inactive: 0.006 | inactive: 0.029 | inactive: 0.152 | inactive: 0.12 | inactive: 0.117 | inactive: -0.03 | inactive: -0.015 | inactive: -0.05 | inactive: 0.009 | inactive: 0.016
28 | PTS (UniProt Q03393) | active: 0.33 | inactive: 0.044 | inactive: 0.051 | inactive: 0.054 | inactive: 0.014 | inactive: 0.02 | inactive: -0.045 | inactive: 0.01 | inactive: 0.104 | inactive: 0.057
29 | PSAP isoform 3 (UniProt P07602) | inactive: 0.008 | inactive: -0.063 | inactive: 0.03 | inactive: 0.017 | inactive: 0.067 | inactive: 0.019 | inactive: -0.042 | inactive: 0.024 | inactive: 0.146 | inactive: 0.04
30 | PSAT1 (UniProt Q9Y617) | inactive: -0.006 | inactive: 0.002 | inactive: -0.054 | inactive: 0.062 | inactive: 0.027 | inactive: 0.018 | inactive: 0.016 | inactive: 0.014 | inactive: -0.019 | inactive: 0

A second format for part of the listing above:
Row,Target,log2 fold change [1],log2 fold change [2],log2 fold change [3],log2 fold change [4],log2 fold change [5],log2 fold change [6],log2 fold change [7],log2 fold change [8],log2 fold change [9],log2 fold change [10]
22,PSMD12 (UniProt O00232),inactive: -0.024,inactive: -0.003,inactive: 0.01,inactive: -0.028,inactive: -0.019,inactive: 0.009,inactive: 0.019,inactive: -0.003,inactive: 0.011,inactive: 0.011
23,PTPN9 (UniProt P43378),inactive: 0.09,inactive: -0.133,inactive: 0.088,inactive: 0.239,inactive: -0.253,inactive: -0.282,inactive: 0.082,inactive: -0.035,inactive: 0.064,inactive: -0.19
